# From patent US7927820B2 (priority 2004, dated 2011)
# At least one compound was matched to its structure with a doubt left. Bridges are numbered along the chain shown (N, C = ends). Where no end group is shown, it is not given here.
# Molecular target: N-type calcium channels in cell membranes isolated from rat brain (Rattus norvegicus, UniProt Q02294)
# Format: binding
# Conditions: read-out: Affinity constant (Ki); pH 7.4
sequence,measurement,value
"KKKCIAKDYGRCKWGGTPCCRGRGCICSIMGTNCECKPRLIMEGLGLA (disulfide 4-20, 12-25, 19-36, 27-34 (inferred)) [ω-Agatoxin, ω-Agatoxin IVA]",Ki,> 100 nM
